Data as given in PubChem BioAssay AID504774 (Drosophila RNAi Screening Center, 2011).

- Aim: 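Genes required for cells to withstand methyl methanesulphonate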 (primary screen)
- Cell system: Drosophila Kc167 cells
- Reagents: long dsRNA against Drosophila genes, about 0.25 µg dsRNA per well
- Duration: about 6 days: 3 days knock-down, then 3 days with or without MMS
- Conditions: methyl methanesulphonate 0.004% (w/v) for 3 days after knock-down
- Read-out: 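ATP-dependent luminescence as a measure of live cells in MMS-exposed wells, quantile normalised within each plate, with replicate values also given as a mean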
- Reading the numbers: mean viability with MMS and viability with MMS: higher = more surviving cells after MMS
The screen tested about 23,000 reagents; this is a random part of those with a known target gene and a result. 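Values are quantile-normalised luminescence on an arbitrary scale; higher means more cells surviving MMS.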 Names joined by + are all predicted targets of the reagent. Not all columns of the deposit are shown. No sequences are given here.

PolA2 (DNA polymerase alpha subunit 2) [DRSC16641] → mean viability with MMS = 3.45e6; viability with MMS, replicate 1 = 4.02e6
beta3GalTII (beta-1,3-Galactosyltransferase II) [DRSC07253] → mean viability with MMS = 3.48e6; viability with MMS, replicate 1 = 3.98e6
CG33189 [DRSC21427] → mean viability with MMS = 3.61e6; viability with MMS, replicate 1 = 4.06e6
beta-Spec (beta Spectrin) [DRSC20311] → mean viability with MMS = 3.62e6; viability with MMS, replicate 1 = 4.11e6
pyd3 [DRSC15459] → mean viability with MMS = 3.57e6; viability with MMS, replicate 1 = 4.08e6
pyd3 [DRSC21640] → mean viability with MMS = 3.47e6; viability with MMS, replicate 1 = 3.95e6
Epg5 (ectopic P-granules autophagy protein 5) [DRSC14778] → mean viability with MMS = 3.83e6; viability with MMS, replicate 1 = 4.71e6
Rrp45 [DRSC20198] → mean viability with MMS = 3.41e6; viability with MMS, replicate 1 = 3.86e6
Rcd1 (Reduction in Cnn dots 1) [DRSC07116] → mean viability with MMS = 3.58e6; viability with MMS, replicate 1 = 3.98e6
CG13070 [DRSC09953] → mean viability with MMS = 3.51e6; viability with MMS, replicate 1 = 3.99e6
Osi20 (Osiris 20) [DRSC12568] → mean viability with MMS = 3.55e6; viability with MMS, replicate 1 = 4.06e6
tty (tweety) [DRSC20588] → mean viability with MMS = 3.67e6; viability with MMS, replicate 1 = 4.05e6
CG5758 [DRSC02889] → mean viability with MMS = 3.31e6; viability with MMS, replicate 1 = 3.78e6
CG5758 [DRSC02890] → mean viability with MMS = 3.46e6; viability with MMS, replicate 1 = 3.96e6
CG11664 [DRSC18650] → mean viability with MMS = 3.62e6; viability with MMS, replicate 1 = 4.17e6
CG13958 (retired record) [DRSC02300] → mean viability with MMS = 3.46e6; viability with MMS, replicate 1 = 3.86e6
Sc2 [DRSC08162] → mean viability with MMS = 3.56e6; viability with MMS, replicate 1 = 4.06e6
Rab27 [DRSC18567] → mean viability with MMS = 3.62e6; viability with MMS, replicate 1 = 4.11e6
Idgf3 (Imaginal disc growth factor 3) [DRSC03351] → mean viability with MMS = 3.62e6; viability with MMS, replicate 1 = 4.05e6
Flacc (Fl(2)d-associated complex component) [DRSC20040] → mean viability with MMS = 3.76e6; viability with MMS, replicate 1 = 4.39e6
CG1946 [DRSC06804] → mean viability with MMS = 3.48e6; viability with MMS, replicate 1 = 3.93e6
Gr22f (Gustatory receptor 22f) [DRSC00076] → mean viability with MMS = 3.59e6; viability with MMS, replicate 1 = 4.01e6
Bro [DRSC08149] → mean viability with MMS = 3.58e6; viability with MMS, replicate 1 = 4.07e6
CG13869 + CG11099 [DRSC06428] → mean viability with MMS = 3.49e6; viability with MMS, replicate 1 = 3.99e6
